Five molecules from paper PMC12447900 can be followed below.

Sequences of proteins named here, by UniProt entry; tags and fusion partners are left off. Residues count along the entry.
UniProt P08670: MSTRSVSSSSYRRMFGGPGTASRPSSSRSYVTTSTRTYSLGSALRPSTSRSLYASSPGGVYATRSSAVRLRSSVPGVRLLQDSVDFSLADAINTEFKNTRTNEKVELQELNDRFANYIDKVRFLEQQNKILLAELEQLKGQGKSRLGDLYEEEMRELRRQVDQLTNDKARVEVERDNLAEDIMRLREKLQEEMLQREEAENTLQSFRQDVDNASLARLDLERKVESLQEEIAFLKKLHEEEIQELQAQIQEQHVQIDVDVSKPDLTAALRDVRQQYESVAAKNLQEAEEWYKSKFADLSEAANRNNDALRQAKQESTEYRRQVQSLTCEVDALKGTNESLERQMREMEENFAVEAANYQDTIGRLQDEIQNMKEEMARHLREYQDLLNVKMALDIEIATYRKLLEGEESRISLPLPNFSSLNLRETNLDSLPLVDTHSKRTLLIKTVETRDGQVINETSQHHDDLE
UniProt Q6UVK1, residues 30-2322: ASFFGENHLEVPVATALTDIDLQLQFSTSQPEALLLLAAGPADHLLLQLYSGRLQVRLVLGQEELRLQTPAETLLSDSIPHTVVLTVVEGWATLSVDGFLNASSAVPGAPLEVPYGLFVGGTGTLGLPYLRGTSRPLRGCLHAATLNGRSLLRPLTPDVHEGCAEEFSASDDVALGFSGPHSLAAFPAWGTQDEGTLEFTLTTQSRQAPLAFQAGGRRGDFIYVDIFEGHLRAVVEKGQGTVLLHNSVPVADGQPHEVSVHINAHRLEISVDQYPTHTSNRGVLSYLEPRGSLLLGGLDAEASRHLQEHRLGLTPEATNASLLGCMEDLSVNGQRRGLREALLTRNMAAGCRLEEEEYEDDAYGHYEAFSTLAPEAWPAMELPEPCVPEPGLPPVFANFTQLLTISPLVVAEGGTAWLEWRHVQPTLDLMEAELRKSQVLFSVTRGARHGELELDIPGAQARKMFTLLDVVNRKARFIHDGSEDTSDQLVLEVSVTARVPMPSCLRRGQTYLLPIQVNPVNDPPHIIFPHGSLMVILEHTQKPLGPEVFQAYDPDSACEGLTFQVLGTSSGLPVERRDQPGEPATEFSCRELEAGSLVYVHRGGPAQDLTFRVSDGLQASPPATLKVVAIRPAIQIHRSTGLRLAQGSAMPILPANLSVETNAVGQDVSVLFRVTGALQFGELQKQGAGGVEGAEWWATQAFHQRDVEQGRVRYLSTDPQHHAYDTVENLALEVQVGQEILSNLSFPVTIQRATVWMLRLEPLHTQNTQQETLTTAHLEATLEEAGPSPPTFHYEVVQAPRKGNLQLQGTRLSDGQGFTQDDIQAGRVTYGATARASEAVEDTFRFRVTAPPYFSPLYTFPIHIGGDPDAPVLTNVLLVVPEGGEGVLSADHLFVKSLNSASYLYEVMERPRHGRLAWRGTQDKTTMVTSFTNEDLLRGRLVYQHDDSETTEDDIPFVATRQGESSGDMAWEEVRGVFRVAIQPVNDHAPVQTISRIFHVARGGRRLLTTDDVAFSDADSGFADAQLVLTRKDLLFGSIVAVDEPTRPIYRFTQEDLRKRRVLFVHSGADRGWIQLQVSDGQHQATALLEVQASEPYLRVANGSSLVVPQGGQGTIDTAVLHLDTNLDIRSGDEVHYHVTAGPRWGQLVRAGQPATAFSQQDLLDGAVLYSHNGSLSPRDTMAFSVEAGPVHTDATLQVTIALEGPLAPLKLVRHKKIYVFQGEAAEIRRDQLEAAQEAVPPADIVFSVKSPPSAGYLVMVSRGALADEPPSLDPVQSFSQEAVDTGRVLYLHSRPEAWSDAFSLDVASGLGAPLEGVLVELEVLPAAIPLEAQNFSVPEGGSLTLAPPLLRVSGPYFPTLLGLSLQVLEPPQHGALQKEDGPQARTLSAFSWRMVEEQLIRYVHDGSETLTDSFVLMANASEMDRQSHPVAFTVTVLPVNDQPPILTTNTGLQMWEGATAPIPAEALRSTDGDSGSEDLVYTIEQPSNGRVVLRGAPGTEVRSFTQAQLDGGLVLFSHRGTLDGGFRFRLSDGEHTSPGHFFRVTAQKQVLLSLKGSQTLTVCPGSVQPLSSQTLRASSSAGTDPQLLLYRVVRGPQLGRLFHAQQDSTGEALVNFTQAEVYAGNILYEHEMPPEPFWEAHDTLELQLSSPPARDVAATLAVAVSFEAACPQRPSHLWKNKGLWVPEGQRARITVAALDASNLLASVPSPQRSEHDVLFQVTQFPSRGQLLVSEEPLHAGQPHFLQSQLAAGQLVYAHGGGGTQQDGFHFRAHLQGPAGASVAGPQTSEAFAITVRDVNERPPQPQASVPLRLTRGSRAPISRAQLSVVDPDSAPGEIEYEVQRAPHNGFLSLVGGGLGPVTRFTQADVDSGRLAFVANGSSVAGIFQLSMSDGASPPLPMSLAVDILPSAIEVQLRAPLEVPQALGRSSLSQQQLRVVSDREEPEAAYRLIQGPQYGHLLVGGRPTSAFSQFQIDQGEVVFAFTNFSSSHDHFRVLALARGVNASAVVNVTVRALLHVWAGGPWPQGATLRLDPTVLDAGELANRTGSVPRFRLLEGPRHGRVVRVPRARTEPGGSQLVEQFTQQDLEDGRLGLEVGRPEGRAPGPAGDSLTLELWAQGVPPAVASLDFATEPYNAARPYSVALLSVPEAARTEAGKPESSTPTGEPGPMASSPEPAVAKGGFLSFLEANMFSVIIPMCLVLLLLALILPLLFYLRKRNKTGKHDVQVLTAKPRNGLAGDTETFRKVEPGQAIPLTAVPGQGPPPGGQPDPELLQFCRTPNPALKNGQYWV
UniProt P29317, residues 24-976: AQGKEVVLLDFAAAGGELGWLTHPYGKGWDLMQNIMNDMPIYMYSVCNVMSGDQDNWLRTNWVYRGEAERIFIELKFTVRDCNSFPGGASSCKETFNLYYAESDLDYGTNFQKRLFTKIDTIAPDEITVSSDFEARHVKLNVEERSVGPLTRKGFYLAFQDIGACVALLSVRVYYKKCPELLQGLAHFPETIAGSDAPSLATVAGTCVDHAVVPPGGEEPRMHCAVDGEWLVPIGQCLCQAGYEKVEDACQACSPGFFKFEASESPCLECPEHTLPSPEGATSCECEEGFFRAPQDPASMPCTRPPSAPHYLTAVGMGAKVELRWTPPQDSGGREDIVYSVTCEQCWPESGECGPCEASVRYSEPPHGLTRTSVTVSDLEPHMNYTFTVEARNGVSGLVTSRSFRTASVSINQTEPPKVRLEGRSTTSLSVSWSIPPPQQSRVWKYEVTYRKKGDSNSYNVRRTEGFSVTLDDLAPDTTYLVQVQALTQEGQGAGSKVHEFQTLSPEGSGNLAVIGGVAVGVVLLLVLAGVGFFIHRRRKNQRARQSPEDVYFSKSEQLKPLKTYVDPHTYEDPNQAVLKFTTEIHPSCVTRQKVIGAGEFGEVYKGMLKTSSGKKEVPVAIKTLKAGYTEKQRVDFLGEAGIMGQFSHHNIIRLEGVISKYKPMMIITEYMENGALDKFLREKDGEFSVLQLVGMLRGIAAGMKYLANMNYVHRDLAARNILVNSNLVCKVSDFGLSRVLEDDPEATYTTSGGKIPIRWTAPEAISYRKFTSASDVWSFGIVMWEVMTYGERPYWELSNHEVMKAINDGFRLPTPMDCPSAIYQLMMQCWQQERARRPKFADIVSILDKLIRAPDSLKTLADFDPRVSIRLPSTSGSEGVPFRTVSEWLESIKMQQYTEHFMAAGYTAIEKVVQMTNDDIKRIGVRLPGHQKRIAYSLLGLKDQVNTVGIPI
UniProt P29323, residues 19-1055: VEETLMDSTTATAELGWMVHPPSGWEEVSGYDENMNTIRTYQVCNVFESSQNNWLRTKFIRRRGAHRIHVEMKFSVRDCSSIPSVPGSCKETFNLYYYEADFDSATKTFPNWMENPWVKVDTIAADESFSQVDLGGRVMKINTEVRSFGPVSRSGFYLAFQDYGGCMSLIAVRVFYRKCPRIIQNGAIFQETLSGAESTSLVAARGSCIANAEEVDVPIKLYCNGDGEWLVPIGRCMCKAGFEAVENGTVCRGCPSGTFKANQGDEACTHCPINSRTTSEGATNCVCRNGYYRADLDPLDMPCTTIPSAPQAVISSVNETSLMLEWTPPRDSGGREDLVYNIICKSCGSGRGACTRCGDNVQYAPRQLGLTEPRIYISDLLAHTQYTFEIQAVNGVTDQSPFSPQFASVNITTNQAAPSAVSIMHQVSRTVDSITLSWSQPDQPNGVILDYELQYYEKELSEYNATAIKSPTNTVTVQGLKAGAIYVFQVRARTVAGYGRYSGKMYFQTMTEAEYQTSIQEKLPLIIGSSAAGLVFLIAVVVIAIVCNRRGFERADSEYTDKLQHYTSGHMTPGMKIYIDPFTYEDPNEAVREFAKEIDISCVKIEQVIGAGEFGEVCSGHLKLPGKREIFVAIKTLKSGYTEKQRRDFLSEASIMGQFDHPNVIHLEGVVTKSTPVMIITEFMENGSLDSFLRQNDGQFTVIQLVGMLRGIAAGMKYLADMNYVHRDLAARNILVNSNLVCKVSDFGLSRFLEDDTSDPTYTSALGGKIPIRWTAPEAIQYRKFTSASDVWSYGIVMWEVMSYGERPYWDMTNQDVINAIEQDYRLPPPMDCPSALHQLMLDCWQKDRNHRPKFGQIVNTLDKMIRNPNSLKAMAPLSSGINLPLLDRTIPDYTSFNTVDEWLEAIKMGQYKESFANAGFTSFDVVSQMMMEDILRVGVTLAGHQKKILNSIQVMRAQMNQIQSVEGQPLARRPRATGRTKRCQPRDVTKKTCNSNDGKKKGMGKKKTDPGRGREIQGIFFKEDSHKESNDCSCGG
UniProt Q8TF66, residues 22-581: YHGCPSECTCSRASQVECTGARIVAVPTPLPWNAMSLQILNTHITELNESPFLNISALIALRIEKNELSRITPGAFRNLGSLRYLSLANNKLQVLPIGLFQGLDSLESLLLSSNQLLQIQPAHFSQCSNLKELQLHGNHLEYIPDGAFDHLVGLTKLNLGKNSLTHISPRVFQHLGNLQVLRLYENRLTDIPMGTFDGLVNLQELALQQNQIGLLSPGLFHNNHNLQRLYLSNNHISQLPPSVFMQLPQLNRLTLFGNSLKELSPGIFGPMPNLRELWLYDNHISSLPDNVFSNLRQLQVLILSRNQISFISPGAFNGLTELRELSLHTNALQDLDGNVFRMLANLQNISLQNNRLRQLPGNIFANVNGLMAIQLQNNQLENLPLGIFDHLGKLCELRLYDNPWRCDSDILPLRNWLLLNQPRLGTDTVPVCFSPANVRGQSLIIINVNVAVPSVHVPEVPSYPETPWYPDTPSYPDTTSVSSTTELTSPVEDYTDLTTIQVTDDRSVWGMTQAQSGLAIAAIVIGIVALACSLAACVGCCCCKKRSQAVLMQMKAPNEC

Read-outs that look alike come from different tables or passages of the source. These are yes or no findings as the source states them, for the method shown. Binding seen in cells or lysates may run through a third protein. These calls come from enrichment with a bait or labelling near it, and not all partners need be listed.

In experiment [1] the target is cell-surface Vimentin with a genomically inserted C-terminal HA-tag, on HGF and HUVEC cells (human (endogenous in HGF and HUVEC)) (UniProt P08670). The experiment can be described thus: proximity labelling; Experiment #2: live C-terminally HA-tag edited HGF and HUVEC cells on ice, HA-tag rabbit mAb and HRP-conjugated secondary antibody, biotinyl tyramide and H2O2 for 3 min at RT; streptavidin pull-down and LC-MS/MS; control: wildtype cells.

The target of experiment [2] is cell-surface Vimentin (csVim), wildtype, on HGF cells (human (endogenous in HGF)) (UniProt P08670). Put plainly: proximity labelling; Experiment #1: live wildtype HGF cells on ice, Vimentin rabbit pAb and HRP-conjugated secondary antibody, biotinyl tyramide and H2O2 for 3 min at RT; streptavidin pull-down and LC-MS/MS; control: secondary antibody only.
Experiment [3] deals with cell-surface Vimentin with a genomically inserted C-terminal HA-tag, on HGF and HUVEC cells (human (endogenous in HGF and HUVEC)) (UniProt P08670). The experiment can be described thus: proximity labelling; Experiment #2: live C-terminally HA-tag edited HGF and HUVEC cells on ice, HA-tag rabbit mAb and HRP-conjugated secondary antibody, biotinyl tyramide and H2O2 for 3 min at RT; streptavidin pull-down and LC-MS/MS; control: wildtype cells. The source holds these as a separate data set.

For “CSPG4, endogenous (from UniProt Q6UVK1 30-2322)”, the binding result in experiment [1] is reported as “binds”. Turning to “EPHA2, endogenous (from UniProt P29317 24-976) (receptor)”, in experiment [1], the binding result is “binds”. Same read-out and setting: under “EPHB2, endogenous (from UniProt P29323 19-1055) (receptor)” stands “binds”; under “LRRC15, endogenous (from UniProt Q8TF66 22-581) (receptor)”, “binds”.

B1: DKK1, endogenous (ligand, UniProt O94907 32-266)
chain: TLNSVLNSNAIKNLPPPLGGAAGHPGSAVSAAPGILYPGGNKYQTIDNYQPYPCAEDEECGTDEYCASPTRGGDAGVQICLACRKRRKRCMRHAMCCPGNYCKNGICVSSDQNHFRGEIEETITESFGNDHSTLDGYSRRTTLSSKMYHTKGQEGSVCLRSSDCASGLCCARHFWSKICKPVLKEGQVCTKHRRKGSHGLEIFQRCYCGEGLSCRIQKDHHQASNSSRLHTCQRH
For B1, the binding entry in experiment [2] and in experiment [3] was “binds” each time.
